Record: PubChem BioAssay AID1259308 (NCATS, 2017)

Screen: 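Candidate targets for better recombinant protein yield in mammalian cells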 (primary screen)
Cells: human HEK293 embryonic kidney cells stably expressing firefly luciferase (HEK-CMV-Luc2-Hygro)
Knock-down reagent: single siRNA against human genes, 0.8 pmol siRNA per well
Time to read-out: 72 h
Measurement: 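Reporter luminescence and viable-cell signal on separate replicate plates, given as percent of non-targeting control and median/MAD z-scores, plus per-cell luciferase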
Direction: total luciferase, z-score: higher = more reporter protein produced
Rule for the call: 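An siRNA counts as active if its total luciferase robust z-score exceeds 3; genes with two or more such siRNAs out of three were retested with fresh siRNAs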
Calls: active = raised luciferase; inactive = no rise
This is an unselected part of about 59,000 deposited reagents. Of all reagents, about 1,510 (2.6%) got an active call. 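Calls use total luciferase alone and ignore viability, so some active siRNAs may act by altering cell number.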 A number with no mark means an inactive call. Reagents against one gene are numbered here. Not all columns of the deposit are shown. Reagent sequences are not shown.

Against MS4A4A #1, the values are total luciferase, z-score 1.17. Depletion of MS4A4A #2 resulted in: total luciferase, z-score 0.35. MS4A4A #3 showed total luciferase, z-score -0.913. For ERFL #1 the deposit lists total luciferase, z-score -1.39. Depletion of ERFL #2 gave: total luciferase, z-score 0.833. ERFL #3 showed total luciferase, z-score -1.74.

Copied from the list:
For “total luciferase, z-score”, MS4A4A #2 shows 0.35
Under “total luciferase, z-score”, ERFL #1 has -1.39

Next records:
NEDD9 #1 showed total luciferase, z-score -0.177. Knock-down of NEDD9 #2 came out at: total luciferase, z-score 1.59. NEDD9 #3 scored total luciferase, z-score 0.152. After knock-down of ZNF491 #1 the results were total luciferase, z-score -0.556. For ZNF491 #2, the entry reads total luciferase, z-score -1.17. Against ZNF491 #3, the entry reads total luciferase, z-score -0.529.
